The list is a part of this screen's results and no random one: it is rich in T/C values a quarter to a half above the control, in often repeated tests (any T/C) and in doses without a T/C. Further doses and runs are listed elsewhere. T/C is the treated group as % of the vehicle group. Some entries give survivors of the animals treated and no T/C: the source files T/C as zero there, which appears to mark a toxic dose or a test without result, not a measured value. Some survivor counts are full or nearly so, which does not show that the dose was tolerated: the source hardly ever lists a survival T/C far under the control, and the zero likely stands for such cases as well. Survivors were counted at the toxicity check, usually on the fifth day, unless a day is given; later deaths do not show. Schedules are NCI's codes, read here as Q, the interval in days (D) or hours (H), X, the number of doses. Where survival is the endpoint, this PubChem deposit counts one and a half times the control or more as active, and values a quarter to a half above the control carry no call in these data; other NCI protocols may use other cut-offs.
Test system: P388 leukemia ip, CD2F1 mice, survival T/C
Assay: NCI In Vivo Anticancer Drug Screen. Data for tumor model P388 Leukemia (intraperitoneal) in CD2F1 (CDF1) mice
Settings: T/C endpoint: median survival time, higher T/C = longer survival
[1] = dose: 50.0 mg/kg/injection, schedule: Q01DX009 (ip), vehicle: Klucel (hydroxypropylcellulose) (HPC)
[2] = dose: 240.0 mg/kg/injection, schedule: Q01DX005 (ip), vehicle: Klucel (hydroxypropylcellulose) (HPC)
[3] = dose: 400.0 mg/kg/injection, schedule: Q01DX009 (ip), vehicle: saline with Tween-80
[4] = dose: 200.0 mg/kg/injection, schedule: Q01DX005 (ip), vehicle: saline with Tween-80

In the case of `O=NN(CCCl)C(=O)Nc1c[nH]c(=O)[nH]c1=O`, the T/C (dose: 1.5 mg/kg/injection, schedule: Q04DX003 (ip), vehicle: saline with Tween-80) is reported as 145 % of control, the survivor count (dose: 25.0 mg/kg/injection, schedule: Q04DX003 (ip), vehicle: saline with Tween-80) is reported as 6 of 6 and the survivor count (dose: 44.0 mg/kg/injection, schedule: Q01DX009 (ip), vehicle: saline with Tween-80) is reported as 5 of 6. The survivor count (dose: 50.0 mg/kg/injection, schedule: Q04DX003 (ip), vehicle: saline with Tween-80) was 4 of 6, the survivor count (dose: 67.0 mg/kg/injection, schedule: Q01DX009 (ip), vehicle: saline with Tween-80) was 6 of 6 and the survivor count (dose: 100.0 mg/kg/injection, schedule: Q01DX009 (ip), vehicle: saline with Tween-80) was 5 of 6. For the same compound, the survivor count (dose: 100.0 mg/kg/injection, schedule: Q04DX003 (ip), vehicle: saline with Tween-80) was 3 of 6, the survivor count (dose: 200.0 mg/kg/injection, schedule: Q04DX003 (ip), vehicle: saline with Tween-80) was 0 of 6 and the survivor count (dose: 400.0 mg/kg/injection, schedule: Q04DX003 (ip), vehicle: saline with Tween-80) was 0 of 6.

For `c1ccc2c(C[Se][Se]Cc3cccc4ccccc34)cccc2c1`, the survivor count [1] was 6 of 6.

In the case of `COC(=O)C1(CC(=O)c2ccc(N3CCN(c4ccc(C(=O)CC5(C(=O)OC)NC(=S)NC(=O)C5C#N)cc4)CC3)cc2)NC(=S)NC(=O)C1C#N` (configuration not stated), the survivor count (dose: 60.0 mg/kg/injection, schedule: Q01DX005 (ip), vehicle: Klucel (hydroxypropylcellulose) (HPC)) is reported as 6 of 6, the survivor count (dose: 120.0 mg/kg/injection, schedule: Q01DX005 (ip), vehicle: Klucel (hydroxypropylcellulose) (HPC)) is reported as 6 of 6 and the survivor count [2] is reported as 6 of 6.

In the case of `O=C(O)C12CC3CC(CC(C3)C1)C2.O=C(O)C12CC3CC(CC(C3)C1)C2.O=C(O)C12CC3CC(CC(C3)C1)C2.O=C(O)C12CC3CC(CC(C3)C1)C2.[Rh].[Rh]`, the survivor count (dose: 100.0 mg/kg/injection, schedule: Q01DX009 (ip), vehicle: saline) is reported as 6 of 6.

With `N#C/C(=C/N)C(N)=O` the survivor count [3] was 5 of 6.

`COc1cc(C2OC(=O)c3ccccc3S2)ccc1O` (configuration not stated) was tested, and the T/C (dose: 6.25 mg/kg/injection, schedule: Q01DX009 (ip), vehicle: Klucel (hydroxypropylcellulose) (HPC)) was 133 % of control, the T/C (dose: 25.0 mg/kg/injection, schedule: Q01DX009 (ip), vehicle: Klucel (hydroxypropylcellulose) (HPC)) was 128 % of control and the survivor count [1] was 6 of 6. The survivor count (dose: 200.0 mg/kg/injection, schedule: Q01DX009 (ip), vehicle: Klucel (hydroxypropylcellulose) (HPC)) was 1 of 6.

For `CCCCCCCCCCCCCCCC(=O)NCCN(CC)CC`, the survivor count (dose: 50.0 mg/kg/injection, schedule: Q01DX009 (ip), vehicle: saline with Tween-80) was 5 of 6.

With `Cc1ccc(S(=O)(=O)NC(=O)Nc2sc(=S)c3c(c2C#N)CCCC3)cc1` the survivor count [4] was 0 of 5.

`Cc1c(Cl)cccc1Nc1ncccc1C(=O)O` was tested, and the survivor count [4] was 3 of 6.

With `CCN(CC)CCSc1cc(C)c2ccc(N)nc2n1` the survivor count [2] was 0 of 6.

`CCOC(=O)C1=C(C)O/C(=C/c2cccc(Cl)c2)C1=O` was tested, and the T/C [4] was 125 % of control and the survivor count (dose: 400.0 mg/kg/injection, schedule: Q01DX005 (ip), vehicle: saline with Tween-80) was 5 of 6.

For `O=C(NNC(=O)C(Cl)Cl)c1ccccn1`, the survivor count (dose: 400.0 mg/kg/injection, schedule: Q01DX009 (ip), vehicle: Klucel (hydroxypropylcellulose) (HPC)) was 0 of 6.

`CNC(=O)OC/C=C/c1ccccc1` was tested, and the survivor count [3] was 1 of 6.

Reference: PubChem BioAssay AID330 (DTP/NCI, 2004)
